Shown are survivors of the treated group in tumour-free mice. Counts of survivors are from the toxicity check (mostly the fifth day) where no day follows; animals may have died later. Schedules are NCI's codes, taken here to give the interval after Q, in days (D) or hours (H), and the number of doses after X. Some entries were tested several times; the values are given in rising order.
System: B6D2F1 mice, nontumored toxicity test, survival
Test: NCI In Vivo Anticancer Drug Screen. Data for tumor model Nontumored Animals (Toxicity Test) in B6D2F1 (BDF1) mice

`CC(CN1CC(=O)NC(=O)C1)N1CC(=O)NC(=O)C1` (stereo not drawn) was tested, and the survivor count (dose: 1.6 mg/kg/injection, schedule: Q03HX016 (oral), vehicle: steroid suspending solution) was 6 of 6, the survivor count (dose: 1.6 mg/kg/injection, schedule: Q03HX024 (ip), vehicle: steroid suspending solution) was 6 of 6 and the survivor count (dose: 1.6 mg/kg/injection, schedule: Q03HX024 (oral), vehicle: steroid suspending solution) was 6 of 6. For the same compound, the survivor count (dose: 3.2 mg/kg/injection, schedule: Q03HX016 (oral), vehicle: steroid suspending solution) was 6 of 6, the survivor count (dose: 3.2 mg/kg/injection, schedule: Q03HX024 (ip), vehicle: steroid suspending solution) was 5 of 5 and the survivor count (dose: 3.2 mg/kg/injection, schedule: Q03HX024 (oral), vehicle: steroid suspending solution) was 6 of 6. For the same compound, the survivor count (dose: 6.3 mg/kg/injection, schedule: Q03HX016 (oral), vehicle: steroid suspending solution) was 6 of 6, the survivor count (dose: 6.3 mg/kg/injection, schedule: Q03HX024 (ip), vehicle: steroid suspending solution) was 6 of 6 and the survivor count (dose: 6.3 mg/kg/injection, schedule: Q03HX024 (oral), vehicle: steroid suspending solution) was 6 of 6. The survivor count (dose: 8.0 mg/kg/injection, schedule: Q01DX009 (ip), vehicle: saline with Tween-80) was 8 of 8, the survivor count (dose: 8.0 mg/kg/injection, schedule: Q01DX009 (oral), vehicle: saline with Tween-80) was 8 of 8 and the survivor count (dose: 8.0 mg/kg/injection, schedule: Q01DX009 (sc), vehicle: saline with Tween-80) was 8 of 8. For the same compound, the survivor count (dose: 8.0 mg/kg/injection, schedule: Q03HX016 (ip), vehicle: saline with Tween-80) was 8 of 8, the survivor count (dose: 8.0 mg/kg/injection, schedule: Q03HX024 (ip), vehicle: saline with Tween-80) was 8 of 8 and the survivor count (dose: 12.5 mg/kg/injection, schedule: Q03HX016 (oral), vehicle: steroid suspending solution) was 6 of 6. The survivor count (dose: 12.5 mg/kg/injection, schedule: Q03HX024 (ip), vehicle: steroid suspending solution) was 6 of 6, the survivor count (dose: 12.5 mg/kg/injection, schedule: Q03HX024 (oral), vehicle: steroid suspending solution) was 6 of 6 and the survivor count (dose: 12.5 mg/kg/injection, schedule: Q04DX003 (ip), vehicle: steroid suspending solution) was 6 of 6. The survivor count (dose: 16.0 mg/kg/injection, schedule: Q01DX009 (ip), vehicle: saline with Tween-80) was 8 of 8, the survivor count (dose: 16.0 mg/kg/injection, schedule: Q01DX009 (oral), vehicle: saline with Tween-80) was 8 of 8 and the survivor count (dose: 16.0 mg/kg/injection, schedule: Q01DX009 (sc), vehicle: saline with Tween-80) was 8 of 8. For the same compound, the survivor count (dose: 16.0 mg/kg/injection, schedule: Q03HX016 (ip), vehicle: saline with Tween-80) was 8 of 8, the survivor count (dose: 16.0 mg/kg/injection, schedule: Q03HX024 (ip), vehicle: saline with Tween-80) was 7 of 7 and the survivor count (dose: 25.0 mg/kg/injection, schedule: Q03HX024 (ip), vehicle: steroid suspending solution) was 6 of 6. The survivor count (dose: 25.0 mg/kg/injection, schedule: Q04DX003 (ip), vehicle: steroid suspending solution) was 6 of 6, the survivor count (dose: 25.0 mg/kg/injection, schedule: Q04DX003 (oral), vehicle: steroid suspending solution) was 6 of 6 and the survivor count (dose: 32.0 mg/kg/injection, schedule: Q01DX009 (ip), vehicle: saline with Tween-80) was 7 of 8 and 8 of 8. For the same compound, the survivor count (dose: 32.0 mg/kg/injection, schedule: Q01DX009 (oral), vehicle: saline with Tween-80) was 7 of 7 and 8 of 8, the survivor count (dose: 32.0 mg/kg/injection, schedule: Q01DX009 (sc), vehicle: saline with Tween-80) was 8 of 8 and the survivor count (dose: 32.0 mg/kg/injection, schedule: Q03HX016 (ip), vehicle: saline with Tween-80) was 7 of 8. The survivor count (dose: 32.0 mg/kg/injection, schedule: Q03HX024 (ip), vehicle: saline with Tween-80) was 8 of 8, the survivor count (dose: 50.0 mg/kg/injection, schedule: Q01DX001 (ip), vehicle: Klucel (hydroxypropylcellulose) (HPC)) was 10 of 10 and the survivor count (dose: 50.0 mg/kg/injection, schedule: Q04DX003 (ip), vehicle: steroid suspending solution) was 6 of 6. For the same compound, the survivor count (dose: 50.0 mg/kg/injection, schedule: Q04DX003 (oral), vehicle: steroid suspending solution) was 6 of 6, the survivor count (dose: 64.0 mg/kg/injection, schedule: Q01DX009 (ip), vehicle: saline with Tween-80) was 8 of 8 and the survivor count (dose: 64.0 mg/kg/injection, schedule: Q01DX009 (oral), vehicle: saline with Tween-80) was 8 of 8. For the same compound, the survivor count (dose: 64.0 mg/kg/injection, schedule: Q01DX009 (sc), vehicle: saline with Tween-80) was 8 of 8, the survivor count (dose: 64.0 mg/kg/injection, schedule: Q03HX016 (ip), vehicle: saline with Tween-80) was 6 of 8 and the survivor count (dose: 64.0 mg/kg/injection, schedule: Q03HX024 (ip), vehicle: saline with Tween-80) was 8 of 8. The survivor count (dose: 64.0 mg/kg/injection, schedule: Q04DX003 (ip), vehicle: saline with Tween-80) was 8 of 8, the survivor count (dose: 64.0 mg/kg/injection, schedule: Q04DX003 (sc), vehicle: saline with Tween-80) was 8 of 8 and the survivor count (dose: 64.0 mg/kg/injection, schedule: Q08DX002 (ip), vehicle: saline with Tween-80) was 6 of 6. The survivor count (dose: 65.0 mg/kg/injection, schedule: Q04DX003 (oral), vehicle: Klucel (hydroxypropylcellulose) (HPC)) was 10 of 10, the survivor count (dose: 100.0 mg/kg/injection, schedule: Q01DX001 (ip), vehicle: Klucel (hydroxypropylcellulose) (HPC)) was 10 of 10, 6 of 6, 8 of 8 and the survivor count (dose: 100.0 mg/kg/injection, schedule: Q04DX003 (ip), vehicle: steroid suspending solution) was 6 of 6. For the same compound, the survivor count (dose: 100.0 mg/kg/injection, schedule: Q04DX003 (oral), vehicle: steroid suspending solution) was 6 of 6, the survivor count (dose: 108.0 mg/kg/injection, schedule: Q04DX003 (oral), vehicle: Klucel (hydroxypropylcellulose) (HPC)) was 10 of 10 and 9 of 9 and the survivor count (dose: 128.0 mg/kg/injection, schedule: Q01DX009 (oral), vehicle: saline with Tween-80) was 7 of 7 and 8 of 8. For the same compound, the survivor count (dose: 128.0 mg/kg/injection, schedule: Q01DX009 (sc), vehicle: saline with Tween-80) was 8 of 8, the survivor count (dose: 128.0 mg/kg/injection, schedule: Q03HX016 (ip), vehicle: saline with Tween-80) was 8 of 8 and the survivor count (dose: 128.0 mg/kg/injection, schedule: Q03HX024 (ip), vehicle: saline with Tween-80) was 8 of 8. The survivor count (dose: 128.0 mg/kg/injection, schedule: Q04DX003 (ip), vehicle: saline with Tween-80) was 8 of 8, the survivor count (dose: 128.0 mg/kg/injection, schedule: Q04DX003 (sc), vehicle: saline with Tween-80) was 8 of 8 and the survivor count (dose: 128.0 mg/kg/injection, schedule: Q08DX002 (ip), vehicle: saline with Tween-80) was 8 of 8. The survivor count (dose: 180.0 mg/kg/injection, schedule: Q04DX003 (oral), vehicle: Klucel (hydroxypropylcellulose) (HPC)) was 10 of 10, the survivor count (dose: 200.0 mg/kg/injection, schedule: Q01DX001 (ip), vehicle: Klucel (hydroxypropylcellulose) (HPC)) was 10 of 10, 6 of 6, 8 of 8 and the survivor count (dose: 200.0 mg/kg/injection, schedule: Q04DX003 (ip), vehicle: steroid suspending solution) was 6 of 6. For the same compound, the survivor count (dose: 200.0 mg/kg/injection, schedule: Q04DX003 (oral), vehicle: steroid suspending solution) was 6 of 6, the survivor count (dose: 200.0 mg/kg/injection, schedule: Q08DX002 (oral), vehicle: steroid suspending solution) was 6 of 6 and the survivor count (dose: 256.0 mg/kg/injection, schedule: Q04DX003 (ip), vehicle: saline with Tween-80) was 8 of 8. The survivor count (dose: 256.0 mg/kg/injection, schedule: Q04DX003 (oral), vehicle: saline with Tween-80) was 8 of 8, the survivor count (dose: 256.0 mg/kg/injection, schedule: Q04DX003 (sc), vehicle: saline with Tween-80) was 8 of 8 and the survivor count (dose: 256.0 mg/kg/injection, schedule: Q08DX002 (ip), vehicle: saline with Tween-80) was 8 of 8. For the same compound, the survivor count (dose: 300.0 mg/kg/injection, schedule: Q04DX003 (oral), vehicle: Klucel (hydroxypropylcellulose) (HPC)) was 10 of 10, the survivor count (dose: 400.0 mg/kg/injection, schedule: Q01DX001 (ip), vehicle: Klucel (hydroxypropylcellulose) (HPC)) was 10 of 10, 6 of 6, 8 of 8 and the survivor count (dose: 400.0 mg/kg/injection, schedule: Q04DX003 (oral), vehicle: steroid suspending solution) was 6 of 6. For the same compound, the survivor count (dose: 400.0 mg/kg/injection, schedule: Q08DX002 (oral), vehicle: steroid suspending solution) was 6 of 6, the survivor count (dose: 500.0 mg/kg/injection, schedule: Q04DX003 (oral), vehicle: Klucel (hydroxypropylcellulose) (HPC)) was 10 of 10 and the survivor count (dose: 512.0 mg/kg/injection, schedule: Q04DX003 (ip), vehicle: saline with Tween-80) was 8 of 8. The survivor count (dose: 512.0 mg/kg/injection, schedule: Q04DX003 (oral), vehicle: saline with Tween-80) was 7 of 8 and 8 of 8, the survivor count (dose: 512.0 mg/kg/injection, schedule: Q04DX003 (sc), vehicle: saline with Tween-80) was 8 of 8 and the survivor count (dose: 512.0 mg/kg/injection, schedule: Q08DX002 (ip), vehicle: saline with Tween-80) was 6 of 7. For the same compound, the survivor count (dose: 800.0 mg/kg/injection, schedule: Q01DX001 (ip), vehicle: Klucel (hydroxypropylcellulose) (HPC)) was 8 of 10, 6 of 6, 8 of 8, the survivor count (dose: 800.0 mg/kg/injection, schedule: Q04DX003 (oral), vehicle: steroid suspending solution) was 6 of 6 and the survivor count (dose: 800.0 mg/kg/injection, schedule: Q08DX002 (oral), vehicle: steroid suspending solution) was 6 of 6. The survivor count (dose: 840.0 mg/kg/injection, schedule: Q04DX003 (oral), vehicle: Klucel (hydroxypropylcellulose) (HPC)) was 10 of 10, the survivor count (dose: 1024.0 mg/kg/injection, schedule: Q04DX003 (ip), vehicle: saline with Tween-80) was 6 of 8 and the survivor count (dose: 1024.0 mg/kg/injection, schedule: Q04DX003 (oral), vehicle: saline with Tween-80) was 7 of 8 and 8 of 8. The survivor count (dose: 1024.0 mg/kg/injection, schedule: Q04DX003 (sc), vehicle: saline with Tween-80) was 8 of 8, the survivor count (dose: 1024.0 mg/kg/injection, schedule: Q08DX002 (ip), vehicle: saline with Tween-80) was 6 of 8 and the survivor count (dose: 1600.0 mg/kg/injection, schedule: Q08DX002 (oral), vehicle: steroid suspending solution) was 6 of 6. For the same compound, the survivor count (dose: 2048.0 mg/kg/injection, schedule: Q04DX003 (oral), vehicle: saline with Tween-80) was 7 of 8, 7 of 7, 8 of 8.

For `Cc1cc2c(c3oc(C4(C)OC4C4OC4C)cc(=O)c13)C(=O)c1c(O)c(C3CC(C)(N(C)C)C(O)C(C)O3)cc(C3CC(N(C)C)C(O)C(C)O3)c1C2=O` (stereo not drawn), the survivor count (dose: 0.12 mg/kg/injection, schedule: Q01DX001 (ip), vehicle: saline) was 8 of 8, the survivor count (dose: 0.24 mg/kg/injection, schedule: Q01DX001 (ip), vehicle: saline) was 8 of 8 and the survivor count (dose: 0.48 mg/kg/injection, schedule: Q01DX001 (ip), vehicle: saline) was 8 of 8. For the same compound, the survivor count (dose: 3.0 micrograms/kg/injection, schedule: Q01DX009 (ip), vehicle: saline) was 8 of 8, the survivor count (dose: 6.0 micrograms/kg/injection, schedule: Q01DX009 (ip), vehicle: saline) was 8 of 8 and the survivor count (dose: 12.0 micrograms/kg/injection, schedule: Q01DX009 (ip), vehicle: saline) was 8 of 8.

From PubChem BioAssay AID186 (DTP/NCI, 2004)
